In article doi:10.1101/2020.12.31.425005 (bioRxiv, 2020):
Where two headings read alike, the source gives them in different places. These are yes or no findings as the source states them, for the method shown. Some results given as binding are weak or reduced against the parent protein; the word gives no strength. For some of these results: Where a sequence is shown, tags or fusion partners need not be part of it.

Experiments:
Assay in all cases: two-hybrid
[1] = biological target: T1, YhcB (E. coli), bacterial two-hybrid fusion (E. coli) (UniProt P0ADW3)
T1 sequence: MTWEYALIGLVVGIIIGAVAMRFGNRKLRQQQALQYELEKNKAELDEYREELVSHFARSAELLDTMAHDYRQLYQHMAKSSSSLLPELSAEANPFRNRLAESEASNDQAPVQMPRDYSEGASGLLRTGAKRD

[2] = biological target: YhcB-v7 (E. coli YhcB lacking the transmembrane region, N-terminal 21 amino acids deleted) (E. coli) (UniProt P0ADW3)
[3] = biological target: T1, YhcB (E. coli), bacterial two-hybrid fusion (E. coli); remark: listed apart in the source
[4] = biological target: YhcB-v7 (E. coli YhcB lacking the transmembrane region, N-terminal 21 amino acids deleted) (E. coli) (UniProt P0ADW3); remark: listed apart in the source

RodZ (E. coli) (from UniProt P27434 1-337)
binding [1]: binds
binding [2]: no binding

FtsQ (E. coli) (from UniProt P06136 1-276)
binding [1]: binds

ZapE (Vibrio cholerae) (from UniProt Q9KUF3 1-367)
binding [1]: binds

B1: RodA (E. coli) (protein, UniProt P0ABG7 1-370)
chain: MTDNPNKKTFWDKVHLDPTMLLILLALLVYSALVIWSASGQDIGMMERKIGQIAMGLVIMVVMAQIPPRVYEGWAPYLYIICIILLVAVDAFGAISKGAQRWLDLGIVRFQPSEIAKIAVPLMVARFINRDVCPPSLKNTGIALVLIFMPTLLVAAQPDLGTSILVALSGLFVLFLSGLSWRLIGVAVVLVAAFIPILWFFLMHDYQRQRVMMLLDPESDPLGAGYHIIQSKIAIGSGGLRGKGWLHGTQSQLEFLPERHTDFIFAVLAEELGLVGILILLALYILLIMRGLWIAARAQTTFGRVMAGGLMLILFVYVFVNIGMVSGILPVVGVPLPLVSYGGSALIVLMAGFGIVMSIHTHRKMLSKSV
binding [3]: binds

B2: YciS (E. coli) (protein, UniProt P0ACV4 1-102)
chain: MKYLLIFLLVLAIFVISVTLGAQNDQQVTFNYLLAQGEYRISTLLAVLFAAGFAIGWLICGLFWLRVRVSLARAERKIKRLENQLSPATDVAVVPHSSAAKE
binding [3]: binds
binding [4]: no binding

B3: FtsI (E. coli) (protein, UniProt P0AD68 1-588)
chain: MKAAAKTQKPKRQEEHANFISWRFALLCGCILLALAFLLGRVAWLQVISPDMLVKEGDMRSLRVQQVSTSRGMITDRSGRPLAVSVPVKAIWADPKEVHDAGGISVGDRWKALANALNIPLDQLSARINANPKGRFIYLARQVNPDMADYIKKLKLPGIHLREESRRYYPSGEVTAHLIGFTNVDSQGIEGVEKSFDKWLTGQPGERIVRKDRYGRVIEDISSTDSQAAHNLALSIDERLQALVYRELNNAVAFNKAESGSAVLVDVNTGEVLAMANSPSYNPNNLSGTPKEAMRNRTITDVFEPGSTVKPMVVMTALQRGVVRENSVLNTIPYRINGHEIKDVARYSELTLTGVLQKSSNVGVSKLALAMPSSALVDTYSRFGLGKATNLGLVGERSGLYPQKQRWSDIERATFSFGYGLMVTPLQLARVYATIGSYGIYRPLSITKVDPPVPGERVFPESIVRTVVHMMESVALPGGGGVKAAIKGYRIAIKTGTAKKVGPDGRYINKYIAYTAGVAPASQPRFALVVVINDPQAGKYYGGAVSAPVFGAIMGGVLRTMNIEPDALTTGDKNEFVINQGEGTGGRS
binding [3]: binds
binding [4]: no binding

B4: YhcB (E. coli), bacterial two-hybrid fusion (protein, UniProt P0ADW3 1-132)
chain: T1 sequence
binding [3]: no binding

B5: HemX (E. coli) (protein, UniProt P09127 1-393)
chain: MTEQEKTSAVVEETREAVDTTSQPVATEKKSKNNTALILSAVAIAIALAAGIGLYGWGKQQAVNQTATSDALANQLTALQKAQESQKAELEGIIKQQAAQLKQANRQQETLAKQLDEVQQKVATISGSDAKTWLLAQADFLVKLAGRKLWSDQDVTTAAALLKSADASLADMNDPSLITVRRAITDDIASLSAVSQVDYDGIILKLNQLSNQVDNLRLADNDSDGSPMDSDGEELSSSISEWRINLQKSWQNFMDNFITIRRRDDTAVPLLAPNQDIYLRENIRSRLLVAAQAVPRHQEETYRQALENVSTWVRAYYDTDDATTKAFLDEVDQLSQQNISMDLPETLQSQAMLEKLMQTRVRNLLAQPAAGTTEAKPAPAPQADTPAAAPQGE
binding [3]: binds

B6: YidC (E. coli) (protein, UniProt P25714 1-548)
chain: MDSQRNLLVIALLFVSFMIWQAWEQDKNPQPQAQQTTQTTTTAAGSAADQGVPASGQGKLISVKTDVLDLTINTRGGDVEQALLPAYPKELNSTQPFQLLETSPQFIYQAQSGLTGRDGPDNPANGPRPLYNVEKDAYVLAEGQNELQVPMTYTDAAGNTFTKTFVLKRGDYAVNVNYNVQNAGEKPLEISSFGQLKQSITLPPHLDTGSSNFALHTFRGAAYSTPDEKYEKYKFDTIADNENLNISSKGGWVAMLQQYFATAWIPHNDGTNNFYTANLGNGIAAIGYKSQPVLVQPGQTGAMNSTLWVGPEIQDKMAAVAPHLDLTVDYGWLWFISQPLFKLLKWIHSFVGNWGFSIIIITFIVRGIMYPLTKAQYTSMAKMRMLQPKIQAMRERLGDDKQRISQEMMALYKAEKVNPLGGCFPLLIQMPIFLALYYMLMGSVELRQAPFALWIHDLSAQDPYYILPILMGVTMFFIQKMSPTTVTDPMQQKIMTFMPVIFTVFFLWFPSGLVLYYIVSNLVTIIQQQLIYRGLEKRGLHSREKKKS
binding [3]: binds
binding [4]: no binding
